Laboratory results from the supplement of paper PMC10849652.
This is one part of the list.

By UniProt entry, the sequences of proteins in these tests, tags left out. Where a name states a change or a piece, a line headed by the entry shows the natural chain unless it says otherwise.
UniProt Q8NDF8: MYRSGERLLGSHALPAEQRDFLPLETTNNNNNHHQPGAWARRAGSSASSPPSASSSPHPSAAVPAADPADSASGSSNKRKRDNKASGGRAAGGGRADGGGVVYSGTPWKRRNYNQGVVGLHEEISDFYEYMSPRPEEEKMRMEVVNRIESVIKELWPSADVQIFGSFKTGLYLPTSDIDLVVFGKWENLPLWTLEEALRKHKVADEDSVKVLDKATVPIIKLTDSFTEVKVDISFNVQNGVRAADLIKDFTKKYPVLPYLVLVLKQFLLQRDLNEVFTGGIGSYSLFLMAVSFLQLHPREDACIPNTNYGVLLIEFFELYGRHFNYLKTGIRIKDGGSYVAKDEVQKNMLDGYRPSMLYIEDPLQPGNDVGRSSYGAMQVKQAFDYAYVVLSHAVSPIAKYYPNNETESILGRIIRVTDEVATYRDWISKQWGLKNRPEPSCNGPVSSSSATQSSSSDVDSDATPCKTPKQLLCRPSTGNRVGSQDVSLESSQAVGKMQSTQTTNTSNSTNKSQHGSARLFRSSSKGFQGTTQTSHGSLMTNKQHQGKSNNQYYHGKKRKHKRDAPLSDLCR
UniProt Q13428: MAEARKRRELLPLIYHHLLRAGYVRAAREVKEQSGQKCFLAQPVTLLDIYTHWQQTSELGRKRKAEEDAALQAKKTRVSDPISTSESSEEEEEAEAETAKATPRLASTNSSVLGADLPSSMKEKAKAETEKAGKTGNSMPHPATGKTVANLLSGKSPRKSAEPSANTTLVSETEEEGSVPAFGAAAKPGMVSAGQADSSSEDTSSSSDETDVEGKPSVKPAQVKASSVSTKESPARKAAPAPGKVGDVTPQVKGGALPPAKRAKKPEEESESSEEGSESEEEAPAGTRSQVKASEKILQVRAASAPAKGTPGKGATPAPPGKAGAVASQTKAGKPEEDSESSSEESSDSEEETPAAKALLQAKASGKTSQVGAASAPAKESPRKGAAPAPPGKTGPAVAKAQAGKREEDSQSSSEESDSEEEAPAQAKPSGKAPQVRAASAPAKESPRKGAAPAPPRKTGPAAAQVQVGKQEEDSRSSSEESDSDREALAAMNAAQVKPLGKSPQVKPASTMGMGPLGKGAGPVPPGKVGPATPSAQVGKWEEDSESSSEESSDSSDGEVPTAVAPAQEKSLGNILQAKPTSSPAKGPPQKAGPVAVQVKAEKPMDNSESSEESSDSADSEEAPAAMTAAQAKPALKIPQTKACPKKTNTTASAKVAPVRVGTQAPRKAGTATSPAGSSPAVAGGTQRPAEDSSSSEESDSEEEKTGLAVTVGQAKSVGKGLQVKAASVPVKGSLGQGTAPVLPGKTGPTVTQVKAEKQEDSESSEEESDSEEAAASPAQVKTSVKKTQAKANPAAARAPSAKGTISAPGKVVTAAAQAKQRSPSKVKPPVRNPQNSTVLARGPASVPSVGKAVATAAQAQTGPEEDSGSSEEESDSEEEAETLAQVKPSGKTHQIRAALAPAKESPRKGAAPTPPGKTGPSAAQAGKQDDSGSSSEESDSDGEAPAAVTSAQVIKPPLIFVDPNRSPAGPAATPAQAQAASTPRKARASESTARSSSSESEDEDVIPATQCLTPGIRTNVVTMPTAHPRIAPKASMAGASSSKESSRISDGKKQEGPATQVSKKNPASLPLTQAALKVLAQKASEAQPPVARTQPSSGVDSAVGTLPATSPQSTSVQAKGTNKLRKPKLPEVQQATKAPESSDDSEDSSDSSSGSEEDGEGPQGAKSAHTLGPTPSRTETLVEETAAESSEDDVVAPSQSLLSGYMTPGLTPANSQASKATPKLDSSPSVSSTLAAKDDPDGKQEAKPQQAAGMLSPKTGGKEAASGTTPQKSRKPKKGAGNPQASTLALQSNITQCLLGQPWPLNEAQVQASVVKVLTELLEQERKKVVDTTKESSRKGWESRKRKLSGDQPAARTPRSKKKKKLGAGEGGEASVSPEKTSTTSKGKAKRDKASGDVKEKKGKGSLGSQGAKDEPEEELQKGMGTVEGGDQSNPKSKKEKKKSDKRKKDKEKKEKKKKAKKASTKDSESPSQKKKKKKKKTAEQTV
UniProt Q86VP1, whole entry, looked up: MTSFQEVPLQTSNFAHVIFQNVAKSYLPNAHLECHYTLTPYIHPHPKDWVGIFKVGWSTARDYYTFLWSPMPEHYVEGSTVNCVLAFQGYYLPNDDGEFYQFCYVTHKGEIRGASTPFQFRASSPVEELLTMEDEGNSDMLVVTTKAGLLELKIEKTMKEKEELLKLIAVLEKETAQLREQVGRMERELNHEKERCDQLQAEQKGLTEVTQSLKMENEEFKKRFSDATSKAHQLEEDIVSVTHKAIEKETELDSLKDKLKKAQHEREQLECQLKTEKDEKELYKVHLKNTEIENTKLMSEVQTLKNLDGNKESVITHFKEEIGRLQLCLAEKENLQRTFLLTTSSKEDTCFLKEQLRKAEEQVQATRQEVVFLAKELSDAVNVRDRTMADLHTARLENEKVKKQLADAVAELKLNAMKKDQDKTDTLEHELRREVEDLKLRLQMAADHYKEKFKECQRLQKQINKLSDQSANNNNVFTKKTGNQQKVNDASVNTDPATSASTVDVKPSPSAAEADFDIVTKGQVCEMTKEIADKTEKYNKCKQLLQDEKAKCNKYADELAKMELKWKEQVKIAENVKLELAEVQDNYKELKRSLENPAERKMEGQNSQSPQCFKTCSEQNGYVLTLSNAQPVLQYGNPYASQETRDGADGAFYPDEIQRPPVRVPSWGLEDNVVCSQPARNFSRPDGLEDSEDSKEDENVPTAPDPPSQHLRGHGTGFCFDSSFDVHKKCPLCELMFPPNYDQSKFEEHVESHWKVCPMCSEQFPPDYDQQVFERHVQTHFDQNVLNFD
UniProt Q6PIY7: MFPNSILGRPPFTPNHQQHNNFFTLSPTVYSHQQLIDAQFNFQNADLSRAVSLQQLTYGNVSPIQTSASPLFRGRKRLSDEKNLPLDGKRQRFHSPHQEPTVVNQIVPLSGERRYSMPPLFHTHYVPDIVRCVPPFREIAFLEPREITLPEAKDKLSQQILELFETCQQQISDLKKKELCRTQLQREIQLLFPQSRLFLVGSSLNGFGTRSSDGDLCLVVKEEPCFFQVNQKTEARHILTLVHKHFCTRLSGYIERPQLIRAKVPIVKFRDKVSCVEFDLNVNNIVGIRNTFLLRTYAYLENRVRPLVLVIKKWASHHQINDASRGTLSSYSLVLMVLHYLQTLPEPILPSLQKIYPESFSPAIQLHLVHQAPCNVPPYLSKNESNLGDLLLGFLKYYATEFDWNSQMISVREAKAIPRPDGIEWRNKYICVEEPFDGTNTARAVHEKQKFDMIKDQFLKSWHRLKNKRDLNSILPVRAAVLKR
UniProt Q6NUS6: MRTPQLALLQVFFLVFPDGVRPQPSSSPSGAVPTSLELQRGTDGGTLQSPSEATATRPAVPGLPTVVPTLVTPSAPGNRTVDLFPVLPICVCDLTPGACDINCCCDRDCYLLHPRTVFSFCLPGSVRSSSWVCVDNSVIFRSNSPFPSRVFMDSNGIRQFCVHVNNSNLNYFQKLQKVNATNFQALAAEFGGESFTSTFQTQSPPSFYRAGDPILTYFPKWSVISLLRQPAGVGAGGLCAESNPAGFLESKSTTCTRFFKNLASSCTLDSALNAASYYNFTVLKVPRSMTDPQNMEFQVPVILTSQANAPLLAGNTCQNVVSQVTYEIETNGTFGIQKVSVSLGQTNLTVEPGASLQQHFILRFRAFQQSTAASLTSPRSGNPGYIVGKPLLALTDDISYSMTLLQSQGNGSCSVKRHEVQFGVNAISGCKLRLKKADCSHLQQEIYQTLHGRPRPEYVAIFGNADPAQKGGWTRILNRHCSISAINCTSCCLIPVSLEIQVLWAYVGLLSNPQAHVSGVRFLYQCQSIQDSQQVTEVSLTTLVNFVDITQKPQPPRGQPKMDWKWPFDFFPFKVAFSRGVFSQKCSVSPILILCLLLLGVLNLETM
UniProt Q9UL54: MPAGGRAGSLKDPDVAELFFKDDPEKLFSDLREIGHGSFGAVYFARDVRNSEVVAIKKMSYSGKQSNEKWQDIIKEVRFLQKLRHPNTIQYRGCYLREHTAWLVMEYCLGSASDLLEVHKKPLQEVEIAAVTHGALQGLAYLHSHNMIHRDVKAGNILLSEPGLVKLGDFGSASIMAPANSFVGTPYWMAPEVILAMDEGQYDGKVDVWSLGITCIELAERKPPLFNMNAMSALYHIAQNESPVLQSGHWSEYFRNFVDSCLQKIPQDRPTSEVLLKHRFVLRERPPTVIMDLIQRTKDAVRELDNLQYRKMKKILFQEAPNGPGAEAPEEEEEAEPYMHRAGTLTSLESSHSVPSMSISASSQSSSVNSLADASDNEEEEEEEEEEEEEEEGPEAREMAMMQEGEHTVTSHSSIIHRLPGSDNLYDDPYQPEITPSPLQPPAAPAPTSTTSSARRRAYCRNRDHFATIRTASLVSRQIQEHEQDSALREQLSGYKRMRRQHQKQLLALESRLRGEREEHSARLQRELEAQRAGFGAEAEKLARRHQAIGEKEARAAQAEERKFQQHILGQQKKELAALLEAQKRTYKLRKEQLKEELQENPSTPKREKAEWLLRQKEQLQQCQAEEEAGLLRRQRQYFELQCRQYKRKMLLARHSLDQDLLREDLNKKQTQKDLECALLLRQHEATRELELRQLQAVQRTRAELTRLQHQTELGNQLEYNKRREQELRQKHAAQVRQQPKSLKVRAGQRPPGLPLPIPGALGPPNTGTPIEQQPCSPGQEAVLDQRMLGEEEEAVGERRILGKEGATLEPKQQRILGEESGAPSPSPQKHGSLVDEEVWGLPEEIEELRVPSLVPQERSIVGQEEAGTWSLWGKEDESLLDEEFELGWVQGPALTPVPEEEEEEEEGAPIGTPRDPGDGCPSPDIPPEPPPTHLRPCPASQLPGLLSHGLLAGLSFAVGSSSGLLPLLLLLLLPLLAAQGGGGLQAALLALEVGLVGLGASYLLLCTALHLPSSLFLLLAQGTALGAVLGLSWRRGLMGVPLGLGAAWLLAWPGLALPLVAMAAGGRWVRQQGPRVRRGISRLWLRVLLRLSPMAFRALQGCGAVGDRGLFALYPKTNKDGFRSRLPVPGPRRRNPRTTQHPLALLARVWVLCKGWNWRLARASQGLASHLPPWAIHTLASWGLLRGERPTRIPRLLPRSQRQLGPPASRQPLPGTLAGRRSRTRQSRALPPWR
UniProt Q9NVR7: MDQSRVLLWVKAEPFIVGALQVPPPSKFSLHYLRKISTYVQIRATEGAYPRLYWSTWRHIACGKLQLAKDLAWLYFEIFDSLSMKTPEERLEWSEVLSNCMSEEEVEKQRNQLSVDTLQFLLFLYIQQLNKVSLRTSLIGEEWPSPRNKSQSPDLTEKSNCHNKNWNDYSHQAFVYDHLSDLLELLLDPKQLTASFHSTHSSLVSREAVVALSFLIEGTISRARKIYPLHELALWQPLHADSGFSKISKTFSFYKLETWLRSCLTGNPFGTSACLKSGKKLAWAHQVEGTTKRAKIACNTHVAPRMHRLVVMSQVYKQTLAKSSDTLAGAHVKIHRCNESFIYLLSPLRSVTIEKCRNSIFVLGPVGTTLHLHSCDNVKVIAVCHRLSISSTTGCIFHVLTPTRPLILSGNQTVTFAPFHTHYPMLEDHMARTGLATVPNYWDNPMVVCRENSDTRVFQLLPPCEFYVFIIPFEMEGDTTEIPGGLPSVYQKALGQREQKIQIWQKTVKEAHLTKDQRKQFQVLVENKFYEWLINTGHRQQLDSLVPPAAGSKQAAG

What was measured:
Experiment in all cases: log2 fold change, soluble protein after heating vs DMSO (PISA); higher = thermal stabilisation; K562 lysate, 10 uM; active = over 0.2 and 3.5 SD of the protein, either way, in both replicates (recomputed)
saracatinib = compound: CN1CCN(CCOc2cc(OC3CCOCC3)c3c(Nc4c(Cl)ccc5c4OCO5)ncnc3c2)CC1 [saracatinib]
Summary of the method: (§1)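 Values give the log-two fold change in thermal stability against solvent controls, from duplicates. Crude K562 extract at 1 mg/mL protein, made by dounce homogenisation in PBS pH 7.4 with 1 mM MgCl2, was treated with 10 μM compound for 30 min. After 3 min heating across 48°C-58°C, aliquots were pooled, adjusted to 0.5% NP-40 at 4°C and centrifuged at 21,000xg for 90 min. The supernatant was measured by TMTpro 16plex LC-MS/MS with channel sums equalised.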

[1] = compound: CNc1nc(-c2ccc3c(N)n[nH]c3c2)cc(N2C[C@@H](C(=O)NC3CCCCC3)CC[C@H]2C)n1
Summary of the method: as §1

barasertib = compound: CCN(CCCOc1ccc2c(Nc3cc(CC(=O)Nc4cccc(F)c4)[nH]n3)ncnc2c1)CCOP(=O)(O)O [barasertib]
Summary of the method: as §1

[2] = compound: CCn1c(C(=O)N(C2CC2)C2CC2)cc2c3c(ncn3C)c(Nc3cc(C)n(C)n3)nc21
Summary of the method: as §1

sotrastaurin = compound: CN1CCN(c2nc(C3=C(c4c[nH]c5ccccc45)C(=O)NC3=O)c3ccccc3n2)CC1 [sotrastaurin]
Summary of the method: as §1

Tubastatin A = compound: CN1CCc2c(c3ccccc3n2Cc2ccc(C(=O)NO)cc2)C1 [Tubastatin A]
Summary of the method: as §1

[3] = compound: CNC(=O)C1=CC=CC=C1NC2=NC(=NC=C2Cl)NC3=C(C=C(C=C3)N4CCOCC4)OC
Summary of the method: as §1

alisertib = compound: COc1cc(Nc2ncc3c(n2)-c2ccc(Cl)cc2C(c2c(F)cccc2OC)=NC3)ccc1C(=O)O [alisertib]
Summary of the method: as §1

gefitinib = compound: COc1cc2ncnc(Nc3ccc(F)c(Cl)c3)c2cc1OCCCN1CCOCC1 [gefitinib]
Summary of the method: as §1

[4] = compound: CCCS(=O)(=O)Nc1ccc(F)c(C(=O)c2c[nH]c3ncc(Cl)cc23)c1F
Summary of the method: as §1

volasertib = compound: CC[C@@H]1C(=O)N(C)c2cnc(Nc3ccc(C(=O)N[C@H]4CC[C@H](N5CCN(CC6CC6)CC5)CC4)cc3OC)nc2N1C(C)C [volasertib]
Summary of the method: as §1

[5] = compound: CCn1cc(-c2ccnc3[nH]c(-c4cccc(CN(C)C)c4)cc23)c(-c2ccc(NC(=O)N(C)C)cc2)n1
Summary of the method: as §1

[6] = compound: CN1CCC(CNc2ccc3ncc(-c4cccc(OC(F)(F)F)c4)n3n2)CC1
Summary of the method: as §1

alvocidib = compound: CN1CC[C@H](c2c(O)cc(O)c3c(=O)cc(-c4ccccc4Cl)oc23)[C@H](O)C1 [alvocidib]
Summary of the method: as §1

[7] = compound: COc1cc2nc(-c3cc(F)ccc3O)nc(N[C@@H]3CNC[C@H]3C(C)(C)O)c2cc1OC
Summary of the method: as §1

[8] = compound: CC[C@@H]1C(=O)N(C)c2cnc(Nc3ccc(C(=O)NC4CCN(C)CC4)cc3OC)nc2N1C1CCCC1
Summary of the method: as §1

encorafenib = compound: COC(=O)N[C@@H](C)CNc1nccc(-c2cn(C(C)C)nc2-c2cc(Cl)cc(NS(C)(=O)=O)c2F)n1 [encorafenib]
Summary of the method: as §1

[9] = compound: COC(=O)[C@H](CCSC)NC(=O)C1=C(C=C(C=C1)NC[C@H](CS)N)C2=CC=CC=C2
Summary of the method: as §1

Measured: log2 fold change

TAF8, A0A0A0MRR3
inactive: saracatinib 0.052 | [1] 0.077

TENT4B isoform 5 (UniProt Q8NDF8)
inactive: barasertib 0.085 | [2] 0.015 | sotrastaurin 0.032 | Tubastatin A -0.098 | [3] -0.031 | alisertib -0.145 | gefitinib -0.228

TCOF1 isoform 3 (UniProt Q13428)
inactive: [4] -0.037 | barasertib 0.189 | volasertib -0.14 | [5] -0.244 | [6] -0.346 | sotrastaurin -0.119 | alvocidib 0.214 | [3] 0.149 | [7] 0.239

TAX1BP1 isoform 2 (UniProt Q86VP1)
inactive: barasertib -0.001 | [2] 0.005 | Tubastatin A 0.207 | [3] -0.158 | alisertib -0.225 | gefitinib -0.273

TENT2 (UniProt Q6PIY7)
inactive: saracatinib 0.02 | [1] -0.059

TCTN3 (UniProt Q6NUS6)
inactive: [5] -0.046 | [6] 0.076 | sotrastaurin 0.117 | alvocidib 0.025 | alisertib -0.072 | gefitinib -0.003

TAOK2 isoform 2 (UniProt Q9UL54)
inactive: alisertib -0.046 | gefitinib -0.202

TBCCD1 (UniProt Q9NVR7)
inactive: [2] 0.049 | [5] -0.045 | [6] 0.152 | alvocidib -0.017 | Tubastatin A 0.564 | [3] -0.07

TBCD, A0A0J9YWI5
inactive: [8] -0.067 | sotrastaurin -0.078 | encorafenib -0.109 | [9] -0.212
